Some of the results follow.

The target of the assay is T1, OsSMF1 (Oryza sativa, UniProt Q6ZLB0 1-436).
T1 sequence: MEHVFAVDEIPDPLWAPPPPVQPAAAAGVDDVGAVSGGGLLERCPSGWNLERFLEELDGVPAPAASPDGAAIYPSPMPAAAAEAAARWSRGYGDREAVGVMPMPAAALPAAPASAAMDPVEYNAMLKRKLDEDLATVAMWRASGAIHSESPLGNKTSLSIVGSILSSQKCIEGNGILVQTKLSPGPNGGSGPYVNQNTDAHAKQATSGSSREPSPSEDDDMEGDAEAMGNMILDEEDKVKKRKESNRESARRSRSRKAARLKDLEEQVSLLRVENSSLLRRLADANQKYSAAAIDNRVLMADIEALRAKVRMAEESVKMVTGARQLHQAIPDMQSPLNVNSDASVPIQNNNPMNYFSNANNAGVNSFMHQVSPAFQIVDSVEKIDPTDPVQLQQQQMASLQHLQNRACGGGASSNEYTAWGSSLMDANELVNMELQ
As to the kind of experiment: protein-binding microarray (RPBM); PBS, 2% BSA, 51.3 ng/ul salmon testes DNA, 50 uM zinc acetate, 200 nM TF, 25 C, 1 h; high values mean tight binding. The following applies: protein: recombinant; tags: N-terminal polyhistidine and DsRed monomer fusion (pET32a); chain copies: 2; label: CyDye5-dUTP incorporated in the synthesized complementary strand; 3' TTTTT single-stranded linker to array surface; dsDNA, one strand shown. An outline of the steps:
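Binding signal here means per-feature fluorescence intensity in arbitrary units. The values were read on an Axon 4000B scanner after a custom Agilent array, double-stranded by primer extension with Cy5-dUTP, was incubated with 200 nM protein at 25 °C for 1 h in PBS with 2% BSA, salmon testes DNA and 50 µM zinc acetate, then washed. The proteins were transcription factors with an N-terminal polyhistidine tag and DsRed, expressed in E. coli BL21-CodonPlus and purified on Ni–NTA.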
As to “TTTACCCCTACCCCACATGTCAGTGACAGAGTCTGCGGGGCGGAGTCACCTAGTGCAG”, the binding signal was 3170 fluorescence intensity (a.u.). Then “CACACCGCTCCACTCCGCCGCTGCCCTGCTCCACTCCGTCCGGAGTCACCTAGTGCAG”, with 20900 fluorescence intensity (a.u.); and “GTGTGTGGTAAGAACAGTGTATGTCTCCATCAGGCCATAGCGGAGTCACCTAGTGCAG”, with 3440 fluorescence intensity (a.u.); and “ACCCGCCAACATCCTGGATAATCCACGATGACTAGGACACCGGAGTCACCTAGTGCAG”, with 6250 fluorescence intensity (a.u.).

For the sequence “CTTGGTGGCCTATTCTGATGTGGACTGGGCTGGCTGTCCACGGAGTCACCTAGTGCAG”, the binding signal is 5160 fluorescence intensity (a.u.). Then “ATGAATACGATGATGATGACGATGTTGGGTACACCCGGCACGGAGTCACCTAGTGCAG”, with 5650 fluorescence intensity (a.u.); and “TCGATCTGCGTCCAGCAAGCAGACACACGTAACCAACTGCCGGAGTCACCTAGTGCAG”, with 3530 fluorescence intensity (a.u.). Then “GTTTAGTTAATGTGAAATTCACCATGAGAATTCGCTTGGACGGAGTCACCTAGTGCAG”, with 12300 fluorescence intensity (a.u.); and “ACTTTTATACACGTAAGCGCCACGTCAGCTCCACATGGAACGGAGTCACCTAGTGCAG”, with 31800 fluorescence intensity (a.u.); and “GTGTCTGCCTCCGCGTCCGCTTCGTCACGGCGGTGTCGGTCGGAGTCACCTAGTGCAG”, with 5900 fluorescence intensity (a.u.).

As to “TTTTGCTATATCAATATGAATCTCCGCACTATCTTGGGTGCGGAGTCACCTAGTGCAG”, the binding signal is 3630 fluorescence intensity (a.u.). Then “AGAAGGGGCGGCATGGTACCAATGACCAACAAAGAGGTAACGGAGTCACCTAGTGCAG”, with 5370 fluorescence intensity (a.u.); and “TTTAGTAGTTTGAAAAGCATACGCGCGGAAACCGAGCAAGCGGAGTCACCTAGTGCAG”, with 3190 fluorescence intensity (a.u.). On to “ATTTATACATCTCTTTCAAATTACGTGGGCACACTGTCTCCGGAGTCACCTAGTGCAG”, for which the binding signal was 5400 fluorescence intensity (a.u.). Then “CGACCGCCGTCAGCGCCGATGAGCCACGATCGCCCTCTACCGGAGTCACCTAGTGCAG”, with 3420 fluorescence intensity (a.u.); and “ACGGTAGCCGGCGGCGGTGCCATGTAGGATAAAGACCAGGCGGAGTCACCTAGTGCAG”, with 3570 fluorescence intensity (a.u.). Then “CTCTCGAACACGTGGCTTTGTCTCATCTCTTAGATCTTCACGGAGTCACCTAGTGCAG”, with 9730 fluorescence intensity (a.u.); and “GTTGGGGAGCGGGGTGTGTGTGCCAGGCGCTCGGGCGGGGCGGAGTCACCTAGTGCAG”, with 5050 fluorescence intensity (a.u.).

With “ACTGAGCAGAACGAATGAAGCCGCCGCAGCGTCGGTGCGACGGAGTCACCTAGTGCAG”, the binding signal was 30200 fluorescence intensity (a.u.).

As for “GGAAAACCAAAAGACCGGTAGGTAGACCCCACCTGTCAGTCGGAGTCACCTAGTGCAG”, the binding signal is 3180 fluorescence intensity (a.u.). Then “GGCCCAACTTGATTTGGGCCCACACGTCGGTGACAATCTCCGGAGTCACCTAGTGCAG”, with 4500 fluorescence intensity (a.u.); and “TGATACACGTGTAGCCCCTACACACCATGTTTGTGGTTCCCGGAGTCACCTAGTGCAG”, with 5860 fluorescence intensity (a.u.); and “GAAGCCACCAATGAAAGATGGCCTTTTGGGCCTTGGGCCTCGGAGTCACCTAGTGCAG”, with 7710 fluorescence intensity (a.u.). Then “TCACTTGAAAGCTAATGAGTCATGGTGAATATACAACTGCCGGAGTCACCTAGTGCAG”, with 5570 fluorescence intensity (a.u.); and “GGTGGAGGAGGAGGATGAGTTTGGGGAGTGTAATATCTGCCGGAGTCACCTAGTGCAG”, with 3240 fluorescence intensity (a.u.). Turning to “GGCGGTTTTGGATGACGTGGTGCCTACGTGGCTAATTTGACGGAGTCACCTAGTGCAG”, the binding signal is 35600 fluorescence intensity (a.u.). Then “GATTGGAGCACGAAATACTATTGCTTAATTCTTCTGAAGACGGAGTCACCTAGTGCAG”, with 3510 fluorescence intensity (a.u.); and “ACACTGGCAAATGGCACGTGGCGTTGTGGCAGTGACTGAGCGGAGTCACCTAGTGCAG”, with 6440 fluorescence intensity (a.u.). Then “TCTAGAAATTTAGTTAAACTTGGAGTAGTTTGAATTTAACCGGAGTCACCTAGTGCAG”, with 9960 fluorescence intensity (a.u.). Then “GTAGTACCCCACTCCAGTCCACTACTGCGCCGCACAAACGCGGAGTCACCTAGTGCAG”, with 3800 fluorescence intensity (a.u.); and “TCGACCGATTGATCGATTGCTCACTGCCATATACATGATACGGAGTCACCTAGTGCAG”, with 3860 fluorescence intensity (a.u.). With “ACAGGTGGGTCCCACGTAATGCCCCGGGCCCTCGTGTCAGCGGAGTCACCTAGTGCAG”, the binding signal was 8430 fluorescence intensity (a.u.).

In the case of “TGGTCGGTTGGTCCGTCCGTGGCGTGGACTCGAAGCCGCCCGGAGTCACCTAGTGCAG”, the binding signal is 4110 fluorescence intensity (a.u.). Regarding “GGAGGGGACGACGATGGTGGGGTGGGTGGTGTCCGGGGTGCGGAGTCACCTAGTGCAG”, the binding signal was 5630 fluorescence intensity (a.u.).

“GTTGACCATGGTTGACTTTGCTGAGTAAGCAGGTGGGACCCGGAGTCACCTAGTGCAG”: the binding signal is 6580 fluorescence intensity (a.u.). Then “TAGTATATGCGTCGTCGTCAGCAGCTTGAGGTACGTGTGTCGGAGTCACCTAGTGCAG”, with 8070 fluorescence intensity (a.u.).

For “AGGTTCTATGTTCTAAAAGCCTCAACCACTAACTTTAAAACGGAGTCACCTAGTGCAG”, the binding signal was 7420 fluorescence intensity (a.u.). For the sequence “AACTGACACGTGATGACTTAGCTGGAAGCGGCACGGACGGCGGAGTCACCTAGTGCAG”, the binding signal was 3880 fluorescence intensity (a.u.). For “TACAGACTACAAAGTATCCATCTCAACATGCTTCGTCAGTCGGAGTCACCTAGTGCAG”, the binding signal is 3370 fluorescence intensity (a.u.).

With “TGCAGCTGAGTTTGTAGAGATCGTTGTACGTACGTCGGCTCGGAGTCACCTAGTGCAG”, the binding signal was 3410 fluorescence intensity (a.u.). Then “CCACCTCCGGCGAGCTCCTCACCCACGCAACCATGGTGCTCGGAGTCACCTAGTGCAG”, with 4080 fluorescence intensity (a.u.). Then “ACATCCCCAGCTCTCCGGGCCCGACACGTGTCCCGCACAACGGAGTCACCTAGTGCAG”, with 16200 fluorescence intensity (a.u.).

For the origin of these results see paper PMC7819943, “Rice protein-binding microarrays: a tool to detect cis-acting elements near promoter regions in rice”.
